# Measured values reported in paper PMC7819943, “Rice protein-binding microarrays: a tool to detect cis-acting elements near promoter regions in rice”.
# Some of the results follow.
# Biological target: T1, OsSMF1 (Oryza sativa, UniProt Q6ZLB0 1-436)
# T1 sequence: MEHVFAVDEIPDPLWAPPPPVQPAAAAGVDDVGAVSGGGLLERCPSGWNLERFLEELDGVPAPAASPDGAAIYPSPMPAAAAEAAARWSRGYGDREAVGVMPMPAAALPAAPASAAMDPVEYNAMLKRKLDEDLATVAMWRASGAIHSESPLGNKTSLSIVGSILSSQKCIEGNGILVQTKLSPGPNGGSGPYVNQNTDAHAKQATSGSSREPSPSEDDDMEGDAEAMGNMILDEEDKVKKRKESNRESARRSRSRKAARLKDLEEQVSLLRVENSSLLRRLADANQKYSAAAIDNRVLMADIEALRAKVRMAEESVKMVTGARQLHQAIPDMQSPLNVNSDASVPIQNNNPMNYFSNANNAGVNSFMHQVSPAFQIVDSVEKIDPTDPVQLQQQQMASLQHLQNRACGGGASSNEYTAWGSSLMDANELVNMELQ
# Test: protein-binding microarray (RPBM); PBS, 2% BSA, 51.3 ng/ul salmon testes DNA, 50 uM zinc acetate, 200 nM TF, 25 C, 1 h; high values mean tight binding
# Settings: protein: recombinant; tags: N-terminal polyhistidine and DsRed monomer fusion (pET32a); chain copies: 2; label: CyDye5-dUTP incorporated in the synthesized complementary strand; 3' TTTTT single-stranded linker to array surface; dsDNA, one strand shown
# Procedure, shortened: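 Binding signal here means per-feature fluorescence intensity in arbitrary units. The values were read on an Axon 4000B scanner after a custom Agilent array, double-stranded by primer extension with Cy5-dUTP, was incubated with 200 nM protein at 25 °C for 1 h in PBS with 2% BSA, salmon testes DNA and 50 µM zinc acetate, then washed. The proteins were transcription factors with an N-terminal polyhistidine tag and DsRed, expressed in E. coli BL21-CodonPlus and purified on Ni–NTA.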
row,Sequence,binding signal
1,CGGGCCCACATGTCAGCCTCACTCAGCATCGGGTCCCGCACGGAGTCACCTAGTGCAG,4300 fluorescence intensity (a.u.)
2,TTAGACAAGTTATAAAACTTTCTTTCACACGATACTATCCCGGAGTCACCTAGTGCAG,3240 fluorescence intensity (a.u.)
3,GTCAAGTGCGATGGAACTGATCGATCTTGGGTTGATTCTCCGGAGTCACCTAGTGCAG,3490 fluorescence intensity (a.u.)
4,TTCCTCCTCCCCGTCGTGCTCGCCGCCCACGACTCCTCCTCGGAGTCACCTAGTGCAG,3150 fluorescence intensity (a.u.)
5,TGGGGTGTGTCAAGCAGTAAGGCATAGAGATGACGATGACCGGAGTCACCTAGTGCAG,4030 fluorescence intensity (a.u.)
6,CTTGCATGCAGCGGTTTGAATGAAATGACCATTCTACCCTCGGAGTCACCTAGTGCAG,37800 fluorescence intensity (a.u.)
7,TTGCCGCATCAGAGACAGGTGTCAGCGGAGGTGGTGGTTGCGGAGTCACCTAGTGCAG,3740 fluorescence intensity (a.u.)
8,CATAATCGTCGTAGTAGATCCCATCAAACGTAACGTGTGTCGGAGTCACCTAGTGCAG,3380 fluorescence intensity (a.u.)
9,GCGCCACTCTCGCTGACTCGCTCGCTGCCAAGCTCGCCGGCGGAGTCACCTAGTGCAG,3700 fluorescence intensity (a.u.)
10,AACCGACAATCCGCCGCGATGCGCTGGCGTTGCCTTGCCCCGGAGTCACCTAGTGCAG,7010 fluorescence intensity (a.u.)
11,CCGGGTGTCCCGTTGTCAGTACGTGGGAGGCGGTTACCCCCGGAGTCACCTAGTGCAG,4050 fluorescence intensity (a.u.)
12,AGCAGAAGCGAATGCATACTAACCCTTGCCAGGTGATTGGCGGAGTCACCTAGTGCAG,3140 fluorescence intensity (a.u.)
13,TGAAGCAGTGATGCATGCGTGACAAAGATTGAGATTTGATCGGAGTCACCTAGTGCAG,3640 fluorescence intensity (a.u.)
14,GCACCTTGAATGAATTATCTAGCAAAGCCAGCGTAGACGTCGGAGTCACCTAGTGCAG,30200 fluorescence intensity (a.u.)
15,CCCACACAACCAAGCCGCCGTCCGTTGTAAACTAATACGGCGGAGTCACCTAGTGCAG,19100 fluorescence intensity (a.u.)
16,TGTATTGACTTGTTTGTCACGGTTTGAGCATTTGCACCTGCGGAGTCACCTAGTGCAG,4310 fluorescence intensity (a.u.)
17,CCACACGTACGTAACGTATACGTACGTACAACGTATATCTCGGAGTCACCTAGTGCAG,5090 fluorescence intensity (a.u.)
18,CCGTCGCCGTCGGCACCGCCGCCGGAGCTCCTCCCTGCTCCGGAGTCACCTAGTGCAG,3220 fluorescence intensity (a.u.)
19,TAAAGCTCATTGGTTCATTTTGATTCTGCATCACCATTTGCGGAGTCACCTAGTGCAG,32600 fluorescence intensity (a.u.)
20,TAAGGAAAGGAAAGGAAAGGAAAGGAAACGGCCTCCACTCCGGAGTCACCTAGTGCAG,5320 fluorescence intensity (a.u.)
21,GGACACCCGCTCCGCGTCGCGCGCACGCTAGAAGAACTCCCGGAGTCACCTAGTGCAG,3140 fluorescence intensity (a.u.)
22,TACTTTAAATGTGTGTCCGTATATCCGATGTGACACGCCACGGAGTCACCTAGTGCAG,3870 fluorescence intensity (a.u.)
23,GCTGCATGTATTTTCAACCGTTAATTCGGATGACCAATAGCGGAGTCACCTAGTGCAG,25700 fluorescence intensity (a.u.)
24,CTCCTCTTGACATCACCCTACTTCCATATGCTGGCTTTAACGGAGTCACCTAGTGCAG,4320 fluorescence intensity (a.u.)
25,CCCCTTCCTAGCAGATTCGCATCGAATCCCGATCTGAGCTCGGAGTCACCTAGTGCAG,19600 fluorescence intensity (a.u.)
26,AATCATAAGTAAAGCAAGGATTTGACACGTCGAGGAGCGCCGGAGTCACCTAGTGCAG,4150 fluorescence intensity (a.u.)
27,TCAGAAAAGTATTGACTCACCATCACTTGGCATGAAGAAGCGGAGTCACCTAGTGCAG,3880 fluorescence intensity (a.u.)

# Reprinted at random: four entries already listed
row,Sequence,binding signal
18,CCGTCGCCGTCGGCACCGCCGCCGGAGCTCCTCCCTGCTCCGGAGTCACCTAGTGCAG,3220 fluorescence intensity (a.u.)
22,TACTTTAAATGTGTGTCCGTATATCCGATGTGACACGCCACGGAGTCACCTAGTGCAG,3870 fluorescence intensity (a.u.)
13,TGAAGCAGTGATGCATGCGTGACAAAGATTGAGATTTGATCGGAGTCACCTAGTGCAG,3640 fluorescence intensity (a.u.)
27,TCAGAAAAGTATTGACTCACCATCACTTGGCATGAAGAAGCGGAGTCACCTAGTGCAG,3880 fluorescence intensity (a.u.)

# The list continues:

row,Sequence,binding signal
1,GGGGATATCAAAACGGCCGTGAGATAGTATCTGGAGAAAACGGAGTCACCTAGTGCAG,38200 fluorescence intensity (a.u.)
2,ACCAGCGGCGGCCGTGCCGTTTGCTTGCGAACTAGCCGTGCGGAGTCACCTAGTGCAG,3190 fluorescence intensity (a.u.)
3,GACTGATATGTCAGCACTCTTTGTTTTCGTACTAGCCTGCCGGAGTCACCTAGTGCAG,4380 fluorescence intensity (a.u.)
4,TACTTATATCCATCATATCTATCTACATACTTGATCAAAACGGAGTCACCTAGTGCAG,3200 fluorescence intensity (a.u.)
5,CTAGCTACCTCTCACACGTACGTAAGGTCACACTAGCCACCGGAGTCACCTAGTGCAG,4700 fluorescence intensity (a.u.)
6,AGCCCGGGCACCGCCGCCGCCCGCAGGCGATCAGCTACACCGGAGTCACCTAGTGCAG,16600 fluorescence intensity (a.u.)
7,CTCTCTCTCGATCCCGTCTCGTCTCGTCAGTCTGCACCCGCGGAGTCACCTAGTGCAG,4540 fluorescence intensity (a.u.)
8,CTTCCTCTCGCCAGTGCCACCACAGCTCAAGCGTGATCCACGGAGTCACCTAGTGCAG,3970 fluorescence intensity (a.u.)
9,GCTCCGCCGTCTTCGCATCCGTCATCTCCGCCACCGATCCCGGAGTCACCTAGTGCAG,3600 fluorescence intensity (a.u.)
10,CCTTCGCCGCCGGCGCCGCCGTTCGCCATCACCGAGCAAGCGGAGTCACCTAGTGCAG,4800 fluorescence intensity (a.u.)
11,TGACCAAAGGCTTCATACACCCTGGCAGCAAAGAGCATTTCGGAGTCACCTAGTGCAG,3770 fluorescence intensity (a.u.)
12,CCTCGGACAACACCACAGCCTCGTCCTCATTCTCCGTGGACGGAGTCACCTAGTGCAG,3720 fluorescence intensity (a.u.)
13,CACCAGGAGTCCAGGAGGGCAGCAGTGTGACGTCGCCGGCCGGAGTCACCTAGTGCAG,4550 fluorescence intensity (a.u.)
14,GTGGATGTGAGCATCAGTCATAAATAACGAACAAGTGGCTCGGAGTCACCTAGTGCAG,22800 fluorescence intensity (a.u.)
15,GCTGCTCGTGCTCGCGGTCGTGCTGCTCCCGAGGACCGCACGGAGTCACCTAGTGCAG,16300 fluorescence intensity (a.u.)
16,AATAGTCAATTCCAGGGTTTCCTGACCCGGTGACCTAGTCCGGAGTCACCTAGTGCAG,3150 fluorescence intensity (a.u.)
17,ATGGAGAAGGGTGGTGGACCGGCTTTGATGGCAGGGGCATCGGAGTCACCTAGTGCAG,3640 fluorescence intensity (a.u.)
18,GTGTGTTCTTCGTCGTCGTCGTGTTCGTTTTGGATTTTGGCGGAGTCACCTAGTGCAG,3400 fluorescence intensity (a.u.)
19,TATTCGTCGGCTAAGGTTGCATGTCATGTAGTATTCTAAGCGGAGTCACCTAGTGCAG,3160 fluorescence intensity (a.u.)
20,AAGTTGCAACAAGTCACGATATCACATAAATTTGCATGTTCGGAGTCACCTAGTGCAG,5060 fluorescence intensity (a.u.)
21,CAAGAAATCGGTGGCCCACGCCACACATGACCGTAGTCGACGGAGTCACCTAGTGCAG,3880 fluorescence intensity (a.u.)
22,GAGCTCGTGGGATTTGGTTATTGCGACGTGTCTACACTTGCGGAGTCACCTAGTGCAG,5080 fluorescence intensity (a.u.)
23,GGCGGTCCAGCACGGCCACCACGACCGGCTCGGACGCCGTCGGAGTCACCTAGTGCAG,3270 fluorescence intensity (a.u.)
24,TTCTGGCAGCGCCAGACATGTCATACTGACATTTCCCTTCCGGAGTCACCTAGTGCAG,4960 fluorescence intensity (a.u.)
25,CCCGTGCTTCTGCAGTACAGCCACGCCGATCCCAACAGGACGGAGTCACCTAGTGCAG,3220 fluorescence intensity (a.u.)
26,CGCAGCATCACGGCCTCCTCTCCCAACGTTCACTTGCGATCGGAGTCACCTAGTGCAG,3340 fluorescence intensity (a.u.)
27,TAGTTACATCGTAGCGTTCTCTTCCAGTACTCATGGCCAACGGAGTCACCTAGTGCAG,3280 fluorescence intensity (a.u.)
